Source: the supplement of paper PMC11732987, “Enantioselective OTUD7B fragment discovery through chemoproteomics screening and high-throughput optimisation” (Communications Chemistry, 2025)
The list shows a part of the results. The data scatter; read single values as rough.

Amino acid sequences for entries named in this document (tags omitted). A change or cut given only in a name is not applied to a line headed by its entry. Residues count along the entry.
UniProt Q13535: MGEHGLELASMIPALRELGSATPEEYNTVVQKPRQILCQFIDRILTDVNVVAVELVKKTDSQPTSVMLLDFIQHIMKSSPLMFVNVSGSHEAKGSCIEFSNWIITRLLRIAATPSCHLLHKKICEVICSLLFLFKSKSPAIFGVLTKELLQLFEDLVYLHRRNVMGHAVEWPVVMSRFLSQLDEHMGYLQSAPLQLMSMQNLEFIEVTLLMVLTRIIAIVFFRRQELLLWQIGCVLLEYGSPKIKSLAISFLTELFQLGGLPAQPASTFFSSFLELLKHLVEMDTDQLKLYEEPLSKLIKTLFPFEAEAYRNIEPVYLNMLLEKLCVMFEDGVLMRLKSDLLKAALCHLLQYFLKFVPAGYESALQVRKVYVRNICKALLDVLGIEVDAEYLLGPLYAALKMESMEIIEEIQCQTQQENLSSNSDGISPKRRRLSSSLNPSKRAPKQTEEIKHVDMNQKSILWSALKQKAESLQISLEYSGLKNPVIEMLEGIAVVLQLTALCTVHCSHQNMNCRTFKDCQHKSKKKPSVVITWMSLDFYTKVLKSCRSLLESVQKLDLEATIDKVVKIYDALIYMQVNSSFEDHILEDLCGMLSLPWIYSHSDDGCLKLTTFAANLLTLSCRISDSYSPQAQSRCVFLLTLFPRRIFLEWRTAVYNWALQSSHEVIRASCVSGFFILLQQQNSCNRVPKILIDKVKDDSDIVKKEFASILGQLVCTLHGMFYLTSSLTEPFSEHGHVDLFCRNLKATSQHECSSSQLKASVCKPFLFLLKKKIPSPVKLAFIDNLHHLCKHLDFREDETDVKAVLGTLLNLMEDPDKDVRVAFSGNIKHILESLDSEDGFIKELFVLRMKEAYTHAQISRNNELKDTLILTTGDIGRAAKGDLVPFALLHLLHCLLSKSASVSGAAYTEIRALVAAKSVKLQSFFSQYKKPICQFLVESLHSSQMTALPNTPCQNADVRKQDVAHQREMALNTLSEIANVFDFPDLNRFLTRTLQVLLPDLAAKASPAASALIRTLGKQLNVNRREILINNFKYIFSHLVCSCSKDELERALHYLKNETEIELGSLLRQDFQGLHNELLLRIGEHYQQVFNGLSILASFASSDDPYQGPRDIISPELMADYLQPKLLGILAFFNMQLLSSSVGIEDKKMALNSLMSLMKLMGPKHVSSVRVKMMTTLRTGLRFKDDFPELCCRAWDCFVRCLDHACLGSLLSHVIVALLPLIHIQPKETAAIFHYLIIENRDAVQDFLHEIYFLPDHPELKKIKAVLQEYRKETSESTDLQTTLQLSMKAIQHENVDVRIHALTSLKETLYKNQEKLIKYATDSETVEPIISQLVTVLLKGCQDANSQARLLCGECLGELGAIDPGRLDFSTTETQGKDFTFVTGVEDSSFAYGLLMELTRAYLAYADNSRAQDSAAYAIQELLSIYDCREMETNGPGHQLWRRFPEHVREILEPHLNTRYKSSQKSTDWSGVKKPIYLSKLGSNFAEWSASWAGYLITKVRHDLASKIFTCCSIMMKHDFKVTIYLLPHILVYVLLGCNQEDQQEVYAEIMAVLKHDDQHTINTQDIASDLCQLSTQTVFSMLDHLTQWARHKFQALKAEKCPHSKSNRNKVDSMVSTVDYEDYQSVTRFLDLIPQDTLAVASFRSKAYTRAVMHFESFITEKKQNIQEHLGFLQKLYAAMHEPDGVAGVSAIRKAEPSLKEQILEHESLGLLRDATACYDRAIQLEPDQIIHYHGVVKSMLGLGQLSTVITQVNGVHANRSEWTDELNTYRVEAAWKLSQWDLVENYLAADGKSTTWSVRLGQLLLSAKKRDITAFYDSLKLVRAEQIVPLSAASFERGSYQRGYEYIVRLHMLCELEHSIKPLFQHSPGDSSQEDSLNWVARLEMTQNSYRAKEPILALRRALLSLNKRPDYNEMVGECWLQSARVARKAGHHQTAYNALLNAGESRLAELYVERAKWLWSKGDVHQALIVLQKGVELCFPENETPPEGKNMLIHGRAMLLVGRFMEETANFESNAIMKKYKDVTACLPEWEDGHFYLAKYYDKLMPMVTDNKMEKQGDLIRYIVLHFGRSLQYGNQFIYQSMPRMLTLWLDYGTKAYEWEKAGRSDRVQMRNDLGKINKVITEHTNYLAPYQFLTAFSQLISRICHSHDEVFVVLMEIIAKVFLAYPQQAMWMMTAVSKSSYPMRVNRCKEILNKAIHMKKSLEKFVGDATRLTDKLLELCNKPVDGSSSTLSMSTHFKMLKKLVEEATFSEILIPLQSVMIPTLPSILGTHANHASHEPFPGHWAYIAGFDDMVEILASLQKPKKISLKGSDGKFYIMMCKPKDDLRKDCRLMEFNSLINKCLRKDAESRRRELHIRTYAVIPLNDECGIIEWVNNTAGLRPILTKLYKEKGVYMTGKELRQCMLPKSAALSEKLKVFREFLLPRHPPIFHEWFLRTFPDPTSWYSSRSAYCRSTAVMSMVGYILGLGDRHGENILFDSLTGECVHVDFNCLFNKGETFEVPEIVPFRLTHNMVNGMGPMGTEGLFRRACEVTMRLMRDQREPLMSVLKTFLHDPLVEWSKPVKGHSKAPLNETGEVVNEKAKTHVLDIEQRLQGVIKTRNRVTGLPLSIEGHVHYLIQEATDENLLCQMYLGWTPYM
UniProt P54132, 605-629: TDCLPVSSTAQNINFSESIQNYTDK
UniProt Q99933: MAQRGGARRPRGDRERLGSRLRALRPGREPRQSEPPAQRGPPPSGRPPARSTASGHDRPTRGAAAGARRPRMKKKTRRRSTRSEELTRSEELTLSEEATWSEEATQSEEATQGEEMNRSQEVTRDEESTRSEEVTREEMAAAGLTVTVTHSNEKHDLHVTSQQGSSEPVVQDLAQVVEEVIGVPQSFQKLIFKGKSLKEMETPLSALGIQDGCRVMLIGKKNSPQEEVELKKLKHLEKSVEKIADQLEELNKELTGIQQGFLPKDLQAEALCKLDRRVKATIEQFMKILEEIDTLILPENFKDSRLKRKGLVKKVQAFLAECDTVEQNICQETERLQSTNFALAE
UniProt Q9HD20: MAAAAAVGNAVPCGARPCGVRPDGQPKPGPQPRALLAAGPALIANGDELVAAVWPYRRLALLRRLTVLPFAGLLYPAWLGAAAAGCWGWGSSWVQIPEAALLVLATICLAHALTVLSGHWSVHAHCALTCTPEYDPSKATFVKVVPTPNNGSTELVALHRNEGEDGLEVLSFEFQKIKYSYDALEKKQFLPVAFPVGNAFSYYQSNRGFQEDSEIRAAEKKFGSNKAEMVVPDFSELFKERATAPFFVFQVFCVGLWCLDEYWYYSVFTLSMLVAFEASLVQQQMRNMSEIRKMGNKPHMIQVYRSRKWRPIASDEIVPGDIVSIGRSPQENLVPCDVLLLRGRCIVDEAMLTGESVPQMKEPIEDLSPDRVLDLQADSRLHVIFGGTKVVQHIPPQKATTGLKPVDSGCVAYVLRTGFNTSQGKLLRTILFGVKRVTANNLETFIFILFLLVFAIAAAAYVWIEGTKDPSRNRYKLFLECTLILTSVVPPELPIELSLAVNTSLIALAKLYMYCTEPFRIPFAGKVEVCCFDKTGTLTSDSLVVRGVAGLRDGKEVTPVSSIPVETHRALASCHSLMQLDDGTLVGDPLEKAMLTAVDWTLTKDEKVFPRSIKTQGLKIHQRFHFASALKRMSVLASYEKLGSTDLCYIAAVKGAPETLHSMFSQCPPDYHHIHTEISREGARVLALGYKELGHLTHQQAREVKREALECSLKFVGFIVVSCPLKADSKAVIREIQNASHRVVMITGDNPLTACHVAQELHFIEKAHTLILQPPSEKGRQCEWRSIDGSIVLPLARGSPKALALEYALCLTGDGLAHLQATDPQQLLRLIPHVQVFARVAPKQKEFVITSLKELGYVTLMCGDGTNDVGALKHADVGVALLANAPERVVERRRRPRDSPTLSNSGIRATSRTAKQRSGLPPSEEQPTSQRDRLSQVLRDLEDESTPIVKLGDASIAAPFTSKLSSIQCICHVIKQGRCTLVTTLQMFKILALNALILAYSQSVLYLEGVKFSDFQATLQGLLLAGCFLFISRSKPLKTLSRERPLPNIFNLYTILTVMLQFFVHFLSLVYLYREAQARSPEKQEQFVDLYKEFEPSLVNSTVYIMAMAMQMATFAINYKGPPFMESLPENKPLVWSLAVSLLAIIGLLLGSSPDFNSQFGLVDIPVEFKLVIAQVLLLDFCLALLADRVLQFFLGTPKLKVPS
UniProt Q8TDH9: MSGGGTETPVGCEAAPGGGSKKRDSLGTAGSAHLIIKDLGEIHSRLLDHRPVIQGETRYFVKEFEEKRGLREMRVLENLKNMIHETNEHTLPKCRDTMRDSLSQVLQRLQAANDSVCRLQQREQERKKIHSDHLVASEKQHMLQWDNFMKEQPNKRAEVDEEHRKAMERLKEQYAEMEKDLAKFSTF
UniProt Q9NSY1: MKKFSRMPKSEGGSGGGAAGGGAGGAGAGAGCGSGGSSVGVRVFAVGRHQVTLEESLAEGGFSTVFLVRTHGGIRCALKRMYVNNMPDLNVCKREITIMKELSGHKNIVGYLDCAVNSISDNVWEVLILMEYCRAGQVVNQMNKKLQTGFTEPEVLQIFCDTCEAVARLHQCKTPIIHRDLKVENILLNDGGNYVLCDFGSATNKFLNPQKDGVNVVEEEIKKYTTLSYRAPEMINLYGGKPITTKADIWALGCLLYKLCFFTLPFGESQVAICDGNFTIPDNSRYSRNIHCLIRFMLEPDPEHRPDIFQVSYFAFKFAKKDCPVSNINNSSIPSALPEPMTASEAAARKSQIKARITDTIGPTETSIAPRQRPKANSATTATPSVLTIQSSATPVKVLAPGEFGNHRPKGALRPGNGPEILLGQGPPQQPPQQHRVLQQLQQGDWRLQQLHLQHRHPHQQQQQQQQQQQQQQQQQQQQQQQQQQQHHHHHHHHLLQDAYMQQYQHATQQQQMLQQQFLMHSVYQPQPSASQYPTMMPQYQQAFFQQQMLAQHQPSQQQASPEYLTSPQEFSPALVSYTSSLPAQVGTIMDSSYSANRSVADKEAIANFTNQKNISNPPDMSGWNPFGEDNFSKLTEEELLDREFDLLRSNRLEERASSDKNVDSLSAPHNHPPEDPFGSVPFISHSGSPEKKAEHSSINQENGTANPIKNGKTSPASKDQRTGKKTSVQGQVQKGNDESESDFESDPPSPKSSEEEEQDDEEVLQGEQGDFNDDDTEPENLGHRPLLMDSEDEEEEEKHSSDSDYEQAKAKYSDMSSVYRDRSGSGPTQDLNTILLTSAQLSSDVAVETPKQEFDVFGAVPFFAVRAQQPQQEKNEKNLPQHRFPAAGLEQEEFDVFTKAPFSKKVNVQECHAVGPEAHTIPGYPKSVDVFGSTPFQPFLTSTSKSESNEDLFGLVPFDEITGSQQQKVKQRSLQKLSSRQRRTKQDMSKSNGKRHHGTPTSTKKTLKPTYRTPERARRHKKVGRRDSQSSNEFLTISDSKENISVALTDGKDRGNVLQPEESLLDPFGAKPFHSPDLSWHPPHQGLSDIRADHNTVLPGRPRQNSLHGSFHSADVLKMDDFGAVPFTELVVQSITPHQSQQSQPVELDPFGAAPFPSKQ
UniProt Q9BZE9, whole entry, looked up: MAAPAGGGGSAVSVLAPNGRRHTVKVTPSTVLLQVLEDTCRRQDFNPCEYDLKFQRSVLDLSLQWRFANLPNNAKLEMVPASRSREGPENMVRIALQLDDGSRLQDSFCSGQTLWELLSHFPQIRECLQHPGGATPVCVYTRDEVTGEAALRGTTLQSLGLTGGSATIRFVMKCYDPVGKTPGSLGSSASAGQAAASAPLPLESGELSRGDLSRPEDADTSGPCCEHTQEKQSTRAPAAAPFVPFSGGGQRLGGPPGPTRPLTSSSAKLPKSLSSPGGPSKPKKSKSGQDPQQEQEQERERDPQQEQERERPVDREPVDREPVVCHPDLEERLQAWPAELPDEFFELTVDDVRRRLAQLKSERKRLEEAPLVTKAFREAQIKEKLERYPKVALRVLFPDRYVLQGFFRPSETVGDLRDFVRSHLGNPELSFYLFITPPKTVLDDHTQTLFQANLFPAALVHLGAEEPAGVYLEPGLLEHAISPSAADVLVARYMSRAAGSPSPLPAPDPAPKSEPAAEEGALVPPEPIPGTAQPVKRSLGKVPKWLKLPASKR
UniProt Q9UL15: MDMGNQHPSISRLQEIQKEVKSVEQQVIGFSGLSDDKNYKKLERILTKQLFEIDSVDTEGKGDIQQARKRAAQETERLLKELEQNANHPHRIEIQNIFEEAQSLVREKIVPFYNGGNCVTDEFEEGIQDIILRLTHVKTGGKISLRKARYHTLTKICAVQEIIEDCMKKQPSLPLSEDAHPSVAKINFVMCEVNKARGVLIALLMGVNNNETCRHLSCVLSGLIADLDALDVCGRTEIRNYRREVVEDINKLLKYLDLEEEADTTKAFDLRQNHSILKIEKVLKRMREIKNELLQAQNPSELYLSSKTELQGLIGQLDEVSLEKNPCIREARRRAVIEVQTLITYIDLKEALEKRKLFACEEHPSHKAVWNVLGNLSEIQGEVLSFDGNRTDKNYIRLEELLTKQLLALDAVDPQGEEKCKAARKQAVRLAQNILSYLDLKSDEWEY

The targets below were run with ClCC(=O)N[C@H]1CCCc2ccccc12 (assay: log2 mean competition ratio of IA-DTB cysteine labelling (DMSO/compound) (log2 ratio); higher = stronger cysteine engagement by compound). Conditions: 50 µM; treatment time: 4 h; cell line lysate: HEK293T.
Procedure: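 IA-DTB competitive cysteine chemoproteomics in HEK293T RIPA lysate. Lysates were treated with compound 29 or 30 at 50 or 200 µM for 4 h, then IA-DTB (500 µM, 1 h), trypsin-digested, NeutrAvidin-enriched and analysed by diaPASEF. Competition ratio = intensity DMSO / intensity compound (n=4 treated, n=64 DMSO); binding: mean log2 CR ≥ 1 and p ≤ 0.05 plus QC filters. Target is the cysteine site.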
In the case of ATR C1721 (UniProt Q13535), the “log2 mean competition ratio” value is reported as 0.0835.
BCAS3 C479 (UniProt Q9H6U6) was tested, and the “log2 mean competition ratio” value was 0.0157.
With BLM C607 (UniProt P54132) the “log2 mean competition ratio” value was 0.743.
For BAG1 C213 (UniProt Q99933), the “log2 mean competition ratio” value was 0.00245.
For B3GALNT2 C198 (UniProt Q8NCR0), the “log2 mean competition ratio” value was 0.0363.
For ATP13A1 C711 (UniProt Q9HD20), the “log2 mean competition ratio” value was 0.118.
For ATP13A2 C365 (UniProt Q9NQ11), the “log2 mean competition ratio” value was -0.151.
BBX C150 (UniProt Q8WY36) was tested, and the “log2 mean competition ratio” value was 0.407.
BLOC1S5 C117 (UniProt Q8TDH9) was tested, and the “log2 mean competition ratio” value was -0.00724.
With ATXN7L2 C585 (UniProt Q5T6C5) the “log2 mean competition ratio” value was 0.000952.
BMP2K C92 (UniProt Q9NSY1) was tested, and the “log2 mean competition ratio” value was 0.383.
In the case of ASPSCR1 C174 (UniProt Q9BZE9), the “log2 mean competition ratio” value is reported as 0.224.
In the case of ATP2B4 C639 (UniProt P23634), the “log2 mean competition ratio” value is reported as -0.0549.
With ATM C564 (UniProt Q13315) the “log2 mean competition ratio” value was -0.258.
For BAG5 C191 (UniProt Q9UL15), the “log2 mean competition ratio” value was 2.4e-05.
For BACH1 C435 (UniProt O14867), the “log2 mean competition ratio” value was -0.226.
For ATR C753 (UniProt Q13535), the “log2 mean competition ratio” value was -0.0226.
In the case of ATP2C1 C669 (UniProt P98194), the “log2 mean competition ratio” value is reported as -0.323.
With BCL2L12 C254 (UniProt Q9HB09) the “log2 mean competition ratio” value was 0.0868.
With ATAD2 C484 (UniProt Q6PL18) the “log2 mean competition ratio” value was -0.0257.

Same assay, conditions: 200 µM; treatment time: 4 h; cell line lysate: HEK293T
For ATR C1721 (UniProt Q13535), the “log2 mean competition ratio” value was 0.185.
In the case of BCAS3 C479 (UniProt Q9H6U6), the “log2 mean competition ratio” value is reported as -0.268.
With BLM C607 (UniProt P54132) the “log2 mean competition ratio” value was -0.0061.
In the case of BAG1 C213 (UniProt Q99933), the “log2 mean competition ratio” value is reported as 0.426.
B3GALNT2 C198 (UniProt Q8NCR0) was tested, and the “log2 mean competition ratio” value was 0.432.
In the case of ATP13A1 C711 (UniProt Q9HD20), the “log2 mean competition ratio” value is reported as -0.0653.
For ATP13A2 C365 (UniProt Q9NQ11), the “log2 mean competition ratio” value was 0.0262.
BBX C150 (UniProt Q8WY36) was tested, and the “log2 mean competition ratio” value was -0.0916.
With BLOC1S5 C117 (UniProt Q8TDH9) the “log2 mean competition ratio” value was 0.311.
With ATXN7L2 C585 (UniProt Q5T6C5) the “log2 mean competition ratio” value was 0.0472.
For BMP2K C92 (UniProt Q9NSY1), the “log2 mean competition ratio” value was 0.0563.
ASPSCR1 C174 (UniProt Q9BZE9) was tested, and the “log2 mean competition ratio” value was -0.00482.
In the case of ATP2B4 C639 (UniProt P23634), the “log2 mean competition ratio” value is reported as 0.176.
With ATM C564 (UniProt Q13315) the “log2 mean competition ratio” value was -0.0094.
For BAG5 C191 (UniProt Q9UL15), the “log2 mean competition ratio” value was -0.0299.
BACH1 C435 (UniProt O14867) was tested, and the “log2 mean competition ratio” value was 0.316.
With ATR C753 (UniProt Q13535) the “log2 mean competition ratio” value was 0.00936.
ATP2C1 C669 (UniProt P98194) was tested, and the “log2 mean competition ratio” value was 0.105.
In the case of BCL2L12 C254 (UniProt Q9HB09), the “log2 mean competition ratio” value is reported as 0.23.
ATAD2 C484 (UniProt Q6PL18) was tested, and the “log2 mean competition ratio” value was 0.111.
